# In all, about 52,000 sequences went through this assay and about 210 (0.4%) were called active.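 The calls were made as follows: active = gene whose silencing raises cell survival under the drug, median off-target-corrected z-score across its silencing RNAs 2 or more; inactive = the rest.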 This is one part of the list.
# Assay: Resistance to Poly (ADP-Ribose) Polymerase inhibitor: Gene Identification via Genome-wide siRNA Screen
# Settings: mouse BRCA2 R2336H ES cells, olaparib, CellTiter-Glo viability; hits give high values
# Outline: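 Genome-wide siRNA screen (3 siRNAs/gene, 20 nM) in mouse ES cells carrying hypomorphic BRCA2 R2336H; olaparib 500 nM added 48 h post-transfection, CellTiter-Glo viability 72 h later. Normalized to plate-median negative control; MAD z-scores, gene median, seed-adjusted.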
row,Sequence,z-score
1,CCGUGCACAACAUUGCCUATT against Qtrt1,inactive: -0.504
2,GGUGAUCACUAACAUGACATT against Smpdl3a,inactive: 1.83
3,GGCCAUUGAUCAAGACAAGTT against Glyat,inactive: -0.633
4,CGACAACAUUUUCCUGUCATT against Serpinc1,inactive: -1.78
5,CCAUAAAUCAUGAACUGGUTT against Sesn3,inactive: -0.16
6,GGUGUACGAACUUAGCCGGTT against Irf7,inactive: 2
7,GGCUAUUGCUGACCUCAGATT against Lrdd,inactive: -2.76
8,CGUCCUAGGAAUCUACUUUTT against Itgad,inactive: -0.183
9,CGUGCUACAGAUGCGUCAUTT against Exoc8,inactive: -0.382
10,GGUUCGUUUUUUGUUGGAATT against 1110014L17Rik,inactive: -0.542
11,GGAAGACUGUAGGAUUGAGTT against 425O18-1,inactive: 0.331
12,GGGUGAGAAAAUUCACGAGTT against Tubg2,inactive: 1.42
13,GGAAGUUUCUCUGAGAGCUTT against Krt2-10,inactive: 0.888
14,AGGUCAAUAAAGAGUGUGATT against 2200001I15Rik,inactive: 0.991
15,GCUUAUAACAGUUGAUGAGTT against Ndufs4,inactive: 1.79
16,GGAUACAAAUCCAGAUUCUTT against Pex26,inactive: 1.88
17,GGAUCUUGAUAGACUGAUGTT against Pem,inactive: 1.51
18,GCAACCCUUCUGAACAGGATT against D10Ertd802e,inactive: 1.19
19,GGAUUUGGAGCAGGUGGAUTT against Avpr1b,inactive: -1.69
20,UCAGGUGAAGAUAAGGACATT against Olfr198,inactive: 0.104
21,GGACAAAAUUAAGGAUUGCTT against Foxg1,inactive: 0.713
22,CCAGACAUGAAACUUGUAUTT against Mms19l,inactive: 0.442
23,CCUUGUGCCGAGAUUUUCCTT against 6430401A05Rik,inactive: 0.445
24,GCAUCUGUGCCGAUUAAAATT against Asb15,inactive: 1.53
25,GCUCUUAAGUACUUGGUCATT against Ddx47,inactive: -2.88
26,GGGAUUGAAUCUUCUUCGCTT against Btbd5,inactive: 0.893
27,GGAAAUUACCCAAUAUGUATT against Birc1b,inactive: -0.0372
28,GCACGAAUUAUGGCACCGUTT against P2rx7,inactive: 0.685
29,GCUUAAUCCUUAGUCAGCATT against F2rl2,inactive: -0.725

# Single entries from the entries so far:
# z-score, GGAAGUUUCUCUGAGAGCUTT against Krt2-10 is entered as inactive: 0.888
# z-score, GGAUCUUGAUAGACUGAUGTT against Pem is entered as inactive: 1.51
